No constants are given. Whether binding was seen depends on the method and setting. Binding seen in cells or lysates may run through a third protein. Binding can be weak; no strength is given. Tags and fused reporters may be left off the sequences shown.
Target: T1, Flag-tagged Rheb (Drosophila) (UniProt Q9VND8)
T1 sequence: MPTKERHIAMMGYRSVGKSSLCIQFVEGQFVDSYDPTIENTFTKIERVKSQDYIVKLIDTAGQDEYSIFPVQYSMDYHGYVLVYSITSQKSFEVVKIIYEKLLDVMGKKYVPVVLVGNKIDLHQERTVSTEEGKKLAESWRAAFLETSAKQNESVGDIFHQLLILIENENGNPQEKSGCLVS
Test: co-IP

Substance: Myc-tagged Cln7 (from UniProt Q9VS51)
- binding: binds
